Results reported in doi:10.1101/2022.09.05.506649.
No constants are given. Whether binding was seen depends on the method and setting. In cells and extracts the contact can be indirect. Some binding calls cover weakened binding; strength is not graded here.

By UniProt entry, the sequences of proteins in these tests, tags left out. Residues count along the entry.
UniProt P0CS90, residues 24-654: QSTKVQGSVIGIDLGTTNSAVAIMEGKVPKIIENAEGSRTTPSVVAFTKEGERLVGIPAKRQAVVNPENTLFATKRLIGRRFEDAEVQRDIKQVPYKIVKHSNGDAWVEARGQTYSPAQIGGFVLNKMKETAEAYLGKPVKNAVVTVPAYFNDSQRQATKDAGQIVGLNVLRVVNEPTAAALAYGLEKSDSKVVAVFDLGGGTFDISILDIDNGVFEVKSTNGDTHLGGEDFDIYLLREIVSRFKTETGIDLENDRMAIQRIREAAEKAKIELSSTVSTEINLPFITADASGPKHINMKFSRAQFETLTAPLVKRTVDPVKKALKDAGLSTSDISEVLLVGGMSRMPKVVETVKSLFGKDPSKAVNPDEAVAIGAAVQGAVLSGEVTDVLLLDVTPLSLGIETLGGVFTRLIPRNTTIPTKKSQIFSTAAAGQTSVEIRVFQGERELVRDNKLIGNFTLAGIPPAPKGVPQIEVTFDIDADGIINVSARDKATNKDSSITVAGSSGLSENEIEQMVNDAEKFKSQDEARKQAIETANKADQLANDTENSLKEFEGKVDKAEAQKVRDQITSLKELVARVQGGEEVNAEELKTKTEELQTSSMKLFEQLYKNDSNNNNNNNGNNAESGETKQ

B1: Tim17 (protein, UniProt P39515 1-158)
chain: MSADHSRDPCPIVILNDFGGAFAMGAIGGVVWHGIKGFRNSPLGERGSGAMSAIKARAPVLGGNFGVWGGLFSTFDCAVKAVRKREDPWNAIIAGFFTGGALAVRGGWRHTRNSSITCACLLGVIEGVGLMFQRYAAWQAKPMAPPLPEAPSSQPLQA
B2: Tim14 (protein, UniProt Q07914 1-168)
chain: MSSQSNTGNSIEAPQLPIPGQTNGSANVTVDGAGVNVGIQNGSQGQKTGMDLYFDQALNYMGEHPVITGFGAFLTLYFTAGAYKSISKGLNGGKSTTAFLKGGFDPKMNSKEALQILNLTENTLTKKKLKEVHRKIMLANHPDKGGSPFLATKINEAKDFLEKRGISK
B3: Hep1, a dedicated chaperone for mtHsp70 (protein, UniProt P42844 48-174)
chain: NEVKKDDKKVHLGSFKVDKPKMMIAFTCKKCNTRSSHTMSKQAYEKGTVLISCPHCKVRHLIADHLKIFHDHHVTVEQLMKANGEQVSQDVGDLEFEDIPDSLKDVLGKYAKNNSENASQLPHPSQK

The binders below were run against mitochondrial Hsp70 (mtHsp70), Ssc1, the major mtHsp70 in yeast (S. cerevisiae (endogenous in yeast mitochondria)) (UniProt P0CS90) (assay: co-IP).

Binder	binding
B1	binds
B2	binds
B3	binds
